According to the supplement of paper PMC6078165:

Tested on: BT20
Experiment: relative JC-1 red fluorescence (viability) vs pre-drug, coculture with fibroblast (fraction); higher = more viable cancer cells
Procedure: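 JC-1 labelled TNBC cells cocultured 1:1 (1,500 cells each) with CellTrace Violet stained primary or stromal fibroblasts in 384-well plates in FluoroBrite medium, treated with one of 42 anticancer drugs at 0.1, 1, 10 or 100 uM. JC-1 red fluorescence (mitochondrial integrity in cancer cells only) was read by plate reader every 8 h for 72 h. Values are normalised to each well's pre-drug value. The stock of one drug was tenfold lower, so its dose labels may be too high.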

CO[C@H]1C[C@@H]2CC[C@@H](C)[C@@](O)(O2)C(=O)C(=O)N2CCCC[C@H]2C(=O)O[C@H]([C@H](C)C[C@@H]2CC[C@@H](OCCO)[C@H](OC)C2)CC(=O)[C@H](C)/C=C(\C)[C@@H](O)[C@@H](OC)C(=O)[C@H](C)C[C@H](C)/C=C/C=C/C=C/1C [Everolimus]
relative JC-1 red fluorescence
Conditions	8 h	16 h	24 h	32 h	40 h	48 h	56 h	64 h	72 h
0.1 µM, coculture fibroblast: C12385	0.8906	0.76	0.687	0.623	0.554	0.52	0.487	0.463	0.453
0.1 µM, coculture fibroblast: H6013	0.897	0.856	0.8179	0.789	0.753	0.74	0.749	0.7412	0.7283
0.1 µM, coculture fibroblast: H6019	0.865	0.842	0.845	0.78	0.737	0.7231	0.6951	0.682	0.671
0.1 µM, coculture fibroblast: H6076	0.9801	0.8676	0.789	0.765	0.735	0.715	0.72	0.721	0.709
0.1 µM, coculture fibroblast: H6231	0.908	0.938	0.821	0.743	0.681	0.6278	0.5934	0.559	0.534
0.1 µM, coculture fibroblast: HADF	0.977	0.8586	0.821	0.786	0.757	0.71	0.702	0.685	0.655
0.1 µM, coculture fibroblast: HCFa	0.891	0.815	0.782	0.731	0.688	0.662	0.642	0.615	0.581
0.1 µM, coculture fibroblast: HCPF	0.77	0.9197	0.85	0.794	0.764	0.725	0.691	0.686	0.651
0.1 µM, coculture fibroblast: HHSteC	0.911	0.854	0.851	0.791	0.754	0.726	0.71	0.687	0.667
0.1 µM, coculture fibroblast: HMF	0.9751	0.876	0.776	0.714	0.663	0.614	0.584	0.562	0.544
0.1 µM, coculture fibroblast: HPFa	0.9545	0.839	0.815	0.737	0.698	0.651	0.62	0.5983	0.562
0.1 µM, coculture fibroblast: HUF	0.888	0.798	0.771	0.694	0.65	0.609	0.585	0.574	0.551
0.1 µM, coculture fibroblast: Hs5	0.794	0.9439	0.844	0.788	0.733	0.698	0.661	0.627	0.596
0.1 µM, coculture fibroblast: Hs27A	0.851	0.827	0.864	0.856	0.814	0.785	0.763	0.734	0.6906
0.1 µM, coculture fibroblast: Hs343T	0.935	0.904	0.804	0.759	0.703	0.66	0.606	0.585	0.561
0.1 µM, coculture fibroblast: WS1	0.8614	0.7752	0.7265	0.6564	0.592	0.554	0.521	0.49274	0.475
1 µM, coculture fibroblast: C12385	0.904	0.859	0.796	0.77	0.741	0.72	0.707	0.693	0.693
1 µM, coculture fibroblast: H6013	0.99	0.942	0.936	0.92	0.905	0.906	0.839	0.7791	0.81
1 µM, coculture fibroblast: H6019	0.8512	0.8094	0.766	0.716	0.674	0.66	0.633	0.6159	0.606
1 µM, coculture fibroblast: H6076	0.899	0.884	0.816	0.789	0.761	0.7435	0.7285	0.729	0.714
1 µM, coculture fibroblast: H6231	0.799	0.9472	0.8498	0.7806	0.736	0.692	0.652	0.634	0.608
1 µM, coculture fibroblast: HADF	0.9876	0.934	0.86	0.836	0.821	0.8	0.788	0.779	0.761
1 µM, coculture fibroblast: HCFa	0.9238	0.8564	0.861	0.823	0.784	0.762	0.731	0.725	0.6817
1 µM, coculture fibroblast: HCPF	0.82	0.9165	0.85	0.807	0.7655	0.73	0.6786	0.6576	0.6213
1 µM, coculture fibroblast: HHSteC	0.937	0.9	0.873	0.797	0.738	0.7	0.656	0.621	0.591
1 µM, coculture fibroblast: HMF	0.887	0.8938	0.802	0.749	0.694	0.646	0.61	0.584	0.564
1 µM, coculture fibroblast: HPFa	0.9464	0.874	0.885	0.82	0.799	0.771	0.766	0.75	0.724
1 µM, coculture fibroblast: HUF	0.8948	0.7994	0.778	0.705	0.658	0.615	0.595	0.575	0.568
1 µM, coculture fibroblast: Hs5	0.807	0.899	0.844	0.804	0.7647	0.7358	0.698	0.668	0.6409
1 µM, coculture fibroblast: Hs27A	0.906	0.86	0.852	0.861	0.817	0.806	0.796	0.784	0.75
1 µM, coculture fibroblast: Hs343T	0.897	0.892	0.794	0.735	0.667	0.624	0.565	0.542	0.505
1 µM, coculture fibroblast: WS1	0.884	0.884	0.874	0.8168	0.7799	0.7778	0.7547	0.7407	0.7462
10 µM, coculture fibroblast: C12385	0.8653	0.848	0.8236	0.78413	0.7288	0.704	0.667	0.646	0.624
10 µM, coculture fibroblast: H6013	0.8767	0.887	0.858	0.816	0.934	0.906	0.91	0.844	0.855
10 µM, coculture fibroblast: H6019	0.87	0.841	0.845	0.815	0.792	0.793	0.771	0.765	0.755
10 µM, coculture fibroblast: H6076	0.852	0.873	0.941	0.95	0.933	0.916	0.92	0.913	0.91
10 µM, coculture fibroblast: H6231	0.857	0.871	0.9712	0.9022	0.849	0.804	0.749	0.716	0.682
10 µM, coculture fibroblast: HADF	0.83	0.77	0.953	0.878	0.873	0.914	0.906	0.915	0.857
10 µM, coculture fibroblast: HCFa	0.945	0.892	0.871	0.864	0.854	0.839	0.786	0.803	0.916
10 µM, coculture fibroblast: HCPF	0.8482	0.864	0.9826	0.934	0.916	0.8765	0.855	0.8498	0.808
10 µM, coculture fibroblast: HHSteC	0.961	0.879	0.908	0.945	0.93	0.916	0.902	0.89	0.879
10 µM, coculture fibroblast: HMF	0.871	0.713	0.9791	0.9369	0.911	0.8682	0.8258	0.7795	0.7342
10 µM, coculture fibroblast: HPFa	0.9621	0.9623	0.965	0.897	0.862	0.822	0.784	0.768	0.733
10 µM, coculture fibroblast: HUF	0.859	0.868	0.95	0.884	0.843	0.804	0.783	0.772	0.755
10 µM, coculture fibroblast: Hs5	0.877	0.899	0.974	0.93	0.891	0.8511	0.815	0.785	0.764
10 µM, coculture fibroblast: Hs27A	0.743	0.8	0.951	0.857	0.963	0.948	0.931	0.92	0.8794
10 µM, coculture fibroblast: Hs343T	0.87	0.8745	0.9471	0.9146	0.8731	0.82	0.7809	0.764	0.731
10 µM, coculture fibroblast: WS1	0.9065	0.9104	0.898	0.862	0.825	0.815	0.787	0.766	0.75
100 µM, coculture fibroblast: C12385	0.898	0.7395	0.748	0.681	0.576	0.494	0.426	0.371	0.31
100 µM, coculture fibroblast: H6013	0.893	0.797	0.823	0.819	0.685	0.608	0.662	0.699	0.712
100 µM, coculture fibroblast: H6019	0.829	0.664	0.527	0.358	0.26	0.263	0.27	0.288	0.298
100 µM, coculture fibroblast: H6076	0.868	0.65	0.49	0.443	0.436	0.464	0.504	0.52	0.522
100 µM, coculture fibroblast: H6231	0.89	0.815	0.772	0.706	0.653	0.586	0.577	0.57	0.558
100 µM, coculture fibroblast: HADF	0.823	0.72	0.812	0.714	0.723	0.595	0.589	0.633	0.658
100 µM, coculture fibroblast: HCFa	0.7545	0.853	0.911	0.744	0.643	0.564	0.58	0.615	0.628
100 µM, coculture fibroblast: HCPF	0.866	0.839	0.842	0.698	0.596	0.534	0.498	0.475	0.44
100 µM, coculture fibroblast: HHSteC	0.913	0.842	0.645	0.482	0.352	0.275	0.294	0.316	0.327
100 µM, coculture fibroblast: HMF	0.936	0.556	0.355	0.314	0.331	0.337	0.363	0.359	0.358
100 µM, coculture fibroblast: HPFa	0.963	0.761	0.817	0.634	0.509	0.381	0.386	0.418	0.434
100 µM, coculture fibroblast: HUF	0.791	0.886	0.921	0.716	0.595	0.54	0.554	0.553	0.548
100 µM, coculture fibroblast: Hs5	0.961	0.747	0.517	0.469	0.48	0.504	0.534	0.534	0.523
100 µM, coculture fibroblast: Hs27A	0.8611	0.842	0.75	0.884	0.831	0.856	0.791	0.812	0.825
100 µM, coculture fibroblast: Hs343T	0.953	0.801	0.447	0.407	0.418	0.422	0.445	0.456	0.442
100 µM, coculture fibroblast: WS1	0.902	0.8666	0.726	0.741	0.544	0.426	0.328	0.266	0.252

The reference is the same well before dosing, and untreated signal decays as well.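 Fibroblast labels name human fibroblasts: mostly primary ones from tissues such as uterus (C12385, HUF), lung (H6013), bone (Hs27A), adrenal (HADF) and skin (WS1), plus mammary HMF and breast cancer-associated Hs343T. The cancer cells are basal-like or mesenchymal-like triple-negative breast cancer lines. The paper calls a changed response a hit when it shifts by more than 3x the replicate standard deviation. The tissue of the other fibroblasts is not given here.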
